Literature values in patent publication US7345160B2, “Aequorin and obelin mutants with differing wavelengths and bioluminescence” (University of Kentucky Research Foundation, priority 2004, dated 2008).
For at least one compound, name, drawing or mass did not settle the structure.

Conditions: cited from earlier work

Structure (SMILES): CN(CCOC(=O)CI)c1ccc([N+](=O)[O-])c2nonc12 [IANBD ester]
- emission wave length: 536 nm
- light absorption maximum: 472 nm
